# Results deposited as PubChem BioAssay AID652243 (Drosophila RNAi Screening Center, 2013)
# Assay: 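Fly regulators of androgen-dependent reporter output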 (primary screen)
# Cells: Drosophila S2R+ cells
# Knock-down reagent: long dsRNA against Drosophila genes
# Timing: 72 h (48 h, then 24 h hormone)
# Challenge: synthetic androgen R1881 at 10 nM for 24 h
# Read-out: 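Firefly light from an androgen-responsive reporter and Renilla control light per well, raw and unnormalised, for each of two replicates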
# Reading the numbers: firefly reporter light: higher = more light from androgen-responsive reporter; Renilla control light: higher = more constitutive control signal (cell number, transfection)
# Active means: 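Across duplicate plates, a knock-down whose log firefly/Renilla ratio shifted a set fold down or up from the GFP/LacZ control mean was a hit; the downward cut appears as both 1.5 and 3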
# Meaning of the calls: active = hit: reporter lowered or raised; inactive = no hit
# In all, the deposit lists about 24,000 reagents; shown is a random part of those that have a named target and a result. Over the whole deposit, 246 (1%) are marked active. 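Plates not normalised; calls are printed but the firefly/Renilla ratio behind them is not deposited; fold cut for lowering reported inconsistently.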 The raw values are shown without normalisation. Reagents against one gene are numbered here. Reagent sequences are not shown. The record does not give: the amount of reagent.
gene knocked down,dsRNA no.,"firefly reporter light, replicate 1","firefly reporter light, replicate 2","Renilla control light, replicate 1","Renilla control light, replicate 2",call
CG5078,1,2.23e5,2.01e5,1.84e6,1.54e6,inactive
Rab32,1,1.52e5,2.81e5,4.82e5,4.80e5,inactive
Rab32,2,1.44e6,1.64e6,1.58e6,1.58e6,inactive
Rab32,3,3.35e5,3.20e5,1.10e6,1.03e6,inactive
antr,1,1.92e5,7.26e5,7.84e5,1.59e6,inactive
inaF-B,1,8.49e5,6.35e5,1.42e6,7.56e5,inactive
Sox21b,1,8.86e5,1.17e6,8.21e5,9.46e5,inactive
Sox21b,2,3.88e5,4.79e5,7.30e5,6.35e5,inactive
sphe,1,1.17e5,1.52e5,7.92e5,8.86e5,inactive
BCAS2,1,83115,53927,5.35e5,4.82e5,inactive
BCAS2,2,3.46e5,4.32e5,1.94e6,1.66e6,inactive
CG14079,1,1.85e5,1.40e5,2.23e6,1.63e6,inactive
CG15130,1,1.73e5,1.64e5,1.32e6,1.20e6,inactive
Cpr49Af,1,2.19e5,2.04e5,1.47e6,1.24e6,inactive
Cpr49Af,2,9.54e5,6.94e5,7.76e5,8.97e5,inactive
Ctns,1,2.01e5,2.17e5,2.55e6,2.51e6,inactive
CG15930,1,3.52e5,2.91e5,2.81e6,2.69e6,inactive
CG15930,2,3.01e5,4.06e5,7.13e5,7.13e5,inactive
CG5070,1,3.57e5,3.76e5,2.82e6,2.56e6,inactive
CG5070,2,7.97e5,1.15e6,1.84e6,1.81e6,inactive
Naxd,1,40237,28727,3.36e5,2.15e5,inactive
Coq9,1,4.52e5,1.12e6,1.47e6,2.53e6,inactive
CG13228,1,1.85e5,1.78e5,1.29e6,9.47e5,inactive
CG13228,2,7.40e5,4.99e5,3.43e6,2.08e6,inactive

Laid out differently: results already given
Rab32 #2
- firefly reporter light, replicate 1: 1.44e6
- firefly reporter light, replicate 2: 1.64e6
- Renilla control light, replicate 1: 1.58e6
- Renilla control light, replicate 2: 1.58e6
- call: inactive

Rab32 #3
- firefly reporter light, replicate 1: 3.35e5
- firefly reporter light, replicate 2: 3.20e5
- Renilla control light, replicate 1: 1.10e6
- Renilla control light, replicate 2: 1.03e6
- call: inactive

antr
- firefly reporter light, replicate 1: 1.92e5
- firefly reporter light, replicate 2: 7.26e5
- Renilla control light, replicate 1: 7.84e5
- Renilla control light, replicate 2: 1.59e6
- call: inactive

inaF-B
- firefly reporter light, replicate 1: 8.49e5
- firefly reporter light, replicate 2: 6.35e5
- Renilla control light, replicate 1: 1.42e6
- Renilla control light, replicate 2: 7.56e5
- call: inactive
